System: tumor tissue samples
Assay: Identification and relative quantitation of HLA-presented tumor associated peptides by LC-MS (presentation profile)
Design: species or system human
Conditions: for Peptide Presentation on cancer entities: cancer entities on which the tumor-associated peptide was found presented (HLA ligandome LC-MS), abbreviations per table footnote
[1] = HLA-A*24 cancer tissues vs HLA-A*24 normal samples (N=19 normal, N=94 tumor), FIGS. 1A-1B

Substance	Peptide Presentation on cancer entities	further results
218 (KTLVAELLILK; listed as Homo sapiens) [compound 218]	AML, NHL, UEC	
84: peptide found in MMP12 (gene looked up) (YVDINTFRL; listed as Homo sapiens) [compound 84]	HCC	
259 (RPPAAGLRGISL; listed as Homo sapiens) [compound 259]	GBM	
32 (SLPDLTPTF; listed as Homo sapiens) [compound 32]	PRCA	
SEQ ID NO.: 65 (VYPASKMFPFI; listed as Homo sapiens)		over-presentation of peptide in cancer tissues compared to normal samples [1]: over-presentation
393 (ILLPYLQTL; listed as Homo sapiens) [compound 393]	AML, BRCA, CLL, CRC, GBM, HCC, HNSCC, NHL, OC	
292 (SPQRLRGLLL; listed as Homo sapiens) [compound 292]	NHL	
263 (HPAPYGDLL; listed as Homo sapiens) [compound 263]	UEC	
296 (MPMQDIKM; listed as Homo sapiens) [compound 296]	UEC	
314 (AIISRLVAL; listed as Homo sapiens) [compound 314]	NHL, OSCAR, UBC	
177 (SSDEVNFLVY; listed as Homo sapiens) [compound 177]	GC, MEL, OC, UEC	
169 (RLDTPLYFSY; listed as Homo sapiens) [compound 169]	MEL, OC	
445 (VLDQGKITEY; listed as Homo sapiens) [compound 445]	GBM, HCC	
381 (TYSKKHFRI; listed as Homo sapiens) [compound 381]	MEL, OC	
371 (GELALKKKI; listed as Homo sapiens) [compound 371]	UEC	
184 (TSAHPEDSSFY; listed as Homo sapiens) [compound 184]	GC, NHL, PRCA	
440 (TLDENPGVRY; listed as Homo sapiens) [compound 440]	GBM, GC, HCC, MEL, NHL, PRCA, UEC	
438 (STDNFNCKY; listed as Homo sapiens) [compound 438]	GC, HCC, MEL	
SEQ ID NO.: 174 (SADDIRGIQSLY; listed as Homo sapiens)		over-presentation of peptide in cancer tissues compared to normal samples (HLA-A*01 cancer tissues vs HLA-A*01 normal samples (N=13 normal, N=40 tumor), FIGS. 1E-1F): over-presentation
379 (NYIVPDKQIF; listed as Homo sapiens) [compound 379]	GBM, GC, HCC, MEL, OC, PRCA	
13 (HYTYILEVF; listed as Homo sapiens) [compound 13]	GC, UEC	
383 (RYKQDVERF; listed as Homo sapiens) [compound 383]	AML, MEL, OC, PRCA, UEC	
72 (RYEGILYTI; listed as Homo sapiens) [compound 72]	GC, HCC, NHL, PRCA	
457 (SINKPTSER; listed as Homo sapiens) [compound 457]	GBM	
363 (AELDKLTSV; listed as Homo sapiens) [compound 363]	GBM, UEC	

Substance	Peptide Presentation on cancer entities	further results
60 (TYLSIFDQL; listed as Homo sapiens) [compound 60]	AML, GC, HCC, OC	
453 (AINTSIKNK; listed as Homo sapiens) [compound 453]	PRCA	
36 (KQMEDGHTLF; listed as Homo sapiens) [compound 36]	AML, OC	
43 (IQMDEPMAF; listed as Homo sapiens) [compound 43]	AML, MEL, OC	
69 (IMPEKFEFW; listed as Homo sapiens) [compound 69]	AML, GC, MEL, NHL, UEC	
455 (RIADIFVKK; listed as Homo sapiens) [compound 455]	GC, MEL, NHL, OC, UEC	
33 (KSSVIASLLF; listed as Homo sapiens) [compound 33]	GBM	
136 (ATDLVVLDRY; listed as Homo sapiens) [compound 136]	GBM, GC, HCC, MEL, NHL, OSCAR, PRCA, UEC	
41 (VIYFMGAIF; listed as Homo sapiens) [compound 41]	HCC, PRCA, UEC	
442 (TSDFSRFTNY; listed as Homo sapiens) [compound 442]	GBM	
132 (ALWLVDPLTV; listed as Homo sapiens) [compound 132]	CLL, CRC, GBM, HCC	
28 (YYSIISHTL; listed as Homo sapiens) [compound 28]	HCC	
SEQ ID NO.: 315 (DIYQRALNL; listed as Homo sapiens)		over-presentation of peptide in cancer tissues compared to normal samples (HLA-B*08 cancer tissues vs HLA-B*08 normal samples (N=1 normal, N=22 tumor), FIGS. 1K-1L): over-presentation
202 (KLAELEGALQK; listed as Homo sapiens) [compound 202]	MEL, OC, UEC	
464 (YPRPGTPAA; listed as Homo sapiens) [compound 464]	AML, GC, MEL, NHL, OC, RCC	
108 (MIIALSLYI; listed as Homo sapiens) [compound 108]	AML, BRCA	
392 (SLFKDQMEL; listed as Homo sapiens) [compound 392]	AML, BRCA, CLL, CRC, GBM, HCC, MEL, NHL, OC, PRCA, RCC, UBC, UEC	
244 (FPYVRDFVM; listed as Homo sapiens) [compound 244]	GBC, MEL, NHL, OC, UEC	
345 (IEFIHPQAF; listed as Homo sapiens) [compound 345]	GBM, GC, NHL, PRCA	
SEQ ID NO.: 130 (NLWGGQGLLGV; listed as Homo sapiens)		over-presentation of peptide in cancer tissues compared to normal samples (HLA-A*02 cancer tissues vs HLA-A*02 normal samples (N=469 normal, N=528 tumor), FIGS. 1C-1D): over-presentation
23 (KFIISDWRF; listed as Homo sapiens) [compound 23]	MEL	
468 (SPMYGQAGL; listed as Homo sapiens) [compound 468]	RCC	
368 (GEFPVRVQV; listed as Homo sapiens) [compound 368]	AML, GC, OC, UEC	
449 (YLDRGTGNVSFY; listed as Homo sapiens) [compound 449]	GBM, GC, HCC, MEL, PRCA, RCC	
156 (LLDSLREQY; listed as Homo sapiens) [compound 156]	GC, NHL, OSCAR	

Substance	Peptide Presentation on cancer entities	further results
SEQ ID NO.: 362 (SEKGVIQVY; listed as Homo sapiens)		over-presentation of peptide in cancer tissues compared to normal samples (HLA-B*44 cancer tissues vs HLA-B*44 normal samples (N=15 normal, N=25 tumor), FIGS. 1M-1N): over-presentation
119 (RTADITVTV; listed as Homo sapiens) [compound 119]	AML, CRC, UBC	
434 (QTDCAPNNGY; listed as Homo sapiens) [compound 434]	GBM, GC, MEL, PRCA	
343 (TEFTTVLY; listed as Homo sapiens) [compound 343]	GBM, NHL, PRCA	
488 (TEFPIIKMY; listed as Homo sapiens) [compound 488]	AML, MEL, NHL, OC, PRCA	
19 (ILKEDPFLF; listed as Homo sapiens) [compound 19]	OC, RCC	
382 (IYHSHHPTL; listed as Homo sapiens) [compound 382]	AML, MEL, NHL, OC, UEC	
SEQ ID NO.: 62 (LYQEILAQL; listed as Homo sapiens)		over-presentation of peptide in cancer tissues compared to normal samples [1]: over-presentation
357 (RELENCFQIQ; listed as Homo sapiens) [compound 357]	UEC	
47 (KYADYFLEV; listed as Homo sapiens) [compound 47]	GBM, OC, UEC	
159 (LSDTSVIQFY; listed as Homo sapiens) [compound 159]	GBM, GC, HCC, MEL, NHL, PRCA	
211 (TVNPVAIHK; listed as Homo sapiens) [compound 211]	GBM, NHL, OC, PRCA, UEC	
56 (VYMIEPLEL; listed as Homo sapiens) [compound 56]	GBM, NHL	
384 (KYVKVFDKF; listed as Homo sapiens) [compound 384]	AML, UEC	
163 (NSDSSLTLREFY; listed as Homo sapiens) [compound 163]	HCC, PRCA	
399 (ATDIPCLLY; listed as Homo sapiens) [compound 399]	MEL	
216 (KLYAWELAF; listed as Homo sapiens) [compound 216]	AML, GBM, MEL, OC, PRCA	
247 (RALLARLLL; listed as Homo sapiens) [compound 247]	NHL	
376 (KYVKDFHKF; listed as Homo sapiens) [compound 376]	AML, OC, PRCA, UEC	
388 (FSIPEGALVAV; listed as Homo sapiens) [compound 388]	AML, CCC, CLL, CRC, GBC, GC, HCC, HNSCC, MEL, NHL, OC, OSCAR, PRCA, RCC, UBC, UEC	
79 (RYLADLPTL; listed as Homo sapiens) [compound 79]	GC, HCC, OC, UEC	
472 (NPRATDAQL; listed as Homo sapiens) [compound 472]	AML	
305 (ALKLRVAVL; listed as Homo sapiens) [compound 305]	NHL	
